The series in a line: general procedure: Fmoc solid-phase peptide synthesis; 2-Cl-(Trt)-Cl (hydrazine-derivatised for the N-terminal fragment); HBTU/DIPEA. The note with it: whole synthesis, scale of the general procedure 0.5 mmol (N-terminal fragment), 0.25 mmol (C-terminal fragme).

For recifin A, the outcome was “Recombinant production of recifin A in E. coli failed to produce an active protein, and recifin A and analogues thereof could not successfully be assembled in one fragment using Fmoc solid phase pepti”.
